In patent publication KR20150006756A:
Results are given in words; binding and its absence hold for the method and conditions named. In cells and extracts the contact can be indirect. Some entries that bind do so weakly or less than the wild type. Sequences can lack the tags named with a protein.

How the values were obtained:
Flag-LRIG1 [1] = target: T1, Flag-LRIG1 (UniProt Q96JA1); assay: co-immunoprecipitation: anti-Flag pull-down of Flag-LRIG1 from MKN45 cell lysate, immunoblot with anti-USP8; with and without L3-1Y/IgG2 5 ug/ml for 1 h
T1 sequence (looked up): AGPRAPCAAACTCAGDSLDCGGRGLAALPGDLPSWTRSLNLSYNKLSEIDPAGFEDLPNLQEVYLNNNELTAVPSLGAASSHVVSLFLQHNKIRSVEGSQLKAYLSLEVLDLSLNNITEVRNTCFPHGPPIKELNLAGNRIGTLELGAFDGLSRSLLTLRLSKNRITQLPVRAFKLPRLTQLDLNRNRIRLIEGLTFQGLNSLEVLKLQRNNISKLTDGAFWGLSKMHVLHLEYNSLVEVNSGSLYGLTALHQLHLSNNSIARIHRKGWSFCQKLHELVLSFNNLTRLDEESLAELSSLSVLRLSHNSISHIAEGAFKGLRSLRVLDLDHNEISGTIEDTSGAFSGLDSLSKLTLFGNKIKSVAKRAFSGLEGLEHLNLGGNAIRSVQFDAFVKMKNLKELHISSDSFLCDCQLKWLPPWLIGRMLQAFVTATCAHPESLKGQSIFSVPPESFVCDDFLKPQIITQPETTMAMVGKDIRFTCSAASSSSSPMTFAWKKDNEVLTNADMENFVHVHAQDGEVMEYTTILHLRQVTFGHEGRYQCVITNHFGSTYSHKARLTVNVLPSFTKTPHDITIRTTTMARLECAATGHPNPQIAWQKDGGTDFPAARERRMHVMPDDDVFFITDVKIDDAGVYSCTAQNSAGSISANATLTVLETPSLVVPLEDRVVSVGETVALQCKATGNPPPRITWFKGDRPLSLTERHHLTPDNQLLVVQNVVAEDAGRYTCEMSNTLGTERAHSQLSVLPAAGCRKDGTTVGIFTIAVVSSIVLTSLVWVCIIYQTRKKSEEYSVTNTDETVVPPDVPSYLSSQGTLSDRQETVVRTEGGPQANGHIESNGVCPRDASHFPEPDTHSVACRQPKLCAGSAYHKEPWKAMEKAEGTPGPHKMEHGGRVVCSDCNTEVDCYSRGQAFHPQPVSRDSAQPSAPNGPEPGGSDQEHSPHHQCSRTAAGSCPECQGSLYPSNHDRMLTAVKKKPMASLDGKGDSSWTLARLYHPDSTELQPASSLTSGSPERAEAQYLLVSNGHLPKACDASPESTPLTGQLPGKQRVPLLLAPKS

Flag-LRIG1 [2] = target: T1, Flag-LRIG1; assay: co-immunoprecipitation and immunoblot, MKN45 cells overexpressing LRIG1, after anti-c-Met antibody

B1: USP8 (NP_001122082: 서열번호 109) (enzyme)
chain: MPAVASVPKELYLSSSLKDLNKKTEVKPEKISTKSYVHSALKIFKTAEECRLDRDEERAYVLYMKYVTVYNLIKKRPDFKQQQDYFHSILGPGNIKKAVEEAERLSESLKLRYEEAEVRKKLEEKDRQEEAQRLQQKRQETGREDGGTLAKGSLENVLDSKDKTQKSNGEKNEKCETKEKGAITAKELYTMMTDKNISLIIMDARRMQDYQDSCILHSLSVPEEAISPGVTASWIEAHLPDDSKDTWKKRGNVEYVVLLDWFSSAKDLQIGTTLRSLKDALFKWESKTVLRNEPLVLEGGYENWLLCYPQYTTNAKVTPPPRRQNEEVSISLDFTYPSLEESIPSKPAAQTPPASIEVDENIELISGQNERMGPLNISTPVEPVAASKSDVSPIIQPVPSIKNVPQIDRTKKPAVKLPEEHRIKSESTNHEQQSPQSGKVIPDRSTKPVVFSPTLMLTDEEKARIHAETALLMEKNKQEKELRERQQEEQKEKLRKEEQEQKAKKKQEAEENEITEKQQKAKEEMEKKESEQAKKEDKETSAKRGKEITGVKRQSKSEHETSDAKKSVEDRGKRCPTPEIQKKSTGDVPHTSVTGDSGSGKPFKIKGQPESGILRTGTFREDTDDTERNKAQREPLTRARSEEMGRIVPGLPSGWAKFLDPITGTFRYYHSPTNTVHMYPPEMAPSSAPPSTPPTHKAKPQIPAERDREPSKLKRSYSSPDITQAIQEEEKRKPTVTPTVNRENKPTCYPKAEISRLSASQIRNLNPVFGGSGPALTGLRNLGNTCYMNSILQCLCNAPHLADYFNRNCYQDDINRSNLLGHKGEVAEEFGIIMKALWTGQYRYISPKDFKITIGKINDQFAGYSQQDSQELLLFLMDGLHEDLNKADNRKRYKEENNDHLDDFKAAEHAWQKHKQLNESIIVALFQGQFKSTVQCLTCHKKSRTFEAFMYLSLPLASTSKCTLQDCLRLFSKEEKLTDNNRFYCSHCRARRDSLKKIEIWKLPPVLLVHLKRFSYDGRWKQKLQTSVDFPLENLDLSQYVIGPKNNLKKYNLFSVSNHYGGLDGGHYTAYCKNAARQRWFKFDDHEVSDISVSSVKSSAAYILFYTSLGPRVTDVAT
Flag-LRIG1 [1]
  binding: binds
Flag-LRIG1 [2]
  binding: binds
